Assay: Corrosion testing following ASTM G31-72, steel coupons in white water / process water
Settings: 7 days, 55° C.; for corrosion relative to coupons in Compound A treated reactors: Example 4, tenfold concentrations

SMILES: NCl [MCA, Monochloramine]
- corrosion observed (Example 3, half immersed coupons, 4 ppm MCA as total active chlorine): mild corrosion
- corrosion relative to coupons in Compound A treated reactors (gas phase coupons): 2.5 times
- corrosion relative to coupons in Compound A treated reactors (half immersed coupons): 10.5 times
